The target in this assay is T1, DE-ETIOLATED1 (DET1), full-length, yeast two-hybrid bait (Arabidopsis thaliana) (UniProt P48732).
T1 sequence: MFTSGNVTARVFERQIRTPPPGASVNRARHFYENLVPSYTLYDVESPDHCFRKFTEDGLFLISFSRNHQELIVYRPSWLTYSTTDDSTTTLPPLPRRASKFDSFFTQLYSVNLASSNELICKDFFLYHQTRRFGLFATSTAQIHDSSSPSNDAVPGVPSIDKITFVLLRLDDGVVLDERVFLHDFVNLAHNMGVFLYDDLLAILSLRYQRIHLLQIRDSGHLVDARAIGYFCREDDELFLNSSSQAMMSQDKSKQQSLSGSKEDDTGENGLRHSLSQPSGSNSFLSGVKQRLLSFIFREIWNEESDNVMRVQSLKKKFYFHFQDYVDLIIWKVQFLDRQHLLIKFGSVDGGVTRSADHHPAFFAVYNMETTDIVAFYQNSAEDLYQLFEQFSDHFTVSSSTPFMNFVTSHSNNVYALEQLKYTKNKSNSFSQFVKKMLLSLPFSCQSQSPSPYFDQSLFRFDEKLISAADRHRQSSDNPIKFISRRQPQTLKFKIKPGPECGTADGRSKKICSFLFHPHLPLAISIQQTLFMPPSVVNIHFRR
The experiment in a line: two-hybrid; … GAL4 two-hybrid system 3 (pGBKT7 bait, pGADT7 prey) in S. cerevisiae AH109; growth on media lacking adenine, leucine, histidine and tryptophan; beta-galactosidase activity; full-length DET1 as bait in Figure 4b.

The source of these data is publication PMC4428065.

Results are given in words; binding and its absence hold for the method and conditions named.

For “CRY1 C-terminus (CCT1), yeast two-hybrid fusion (Arabidopsis thaliana) (domain or fragment)”, the binding result is recorded as “no binding”.
For “CRY2 C-terminus (CCT2), yeast two-hybrid fusion (Arabidopsis thaliana) (domain or fragment)”, the binding entry is “no binding”.
